{"source": "PubChem BioAssay AID1259308 | NCATS, 2017", "test": "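Genes whose loss raises luciferase production in HEK293 cells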 (primary screen)", "system": "human HEK293 embryonic kidney cells stably expressing firefly luciferase (HEK-CMV-Luc2-Hygro)", "reagent": "single siRNA against human genes, 0.8 pmol siRNA per well", "timing": "72 h", "measurement": "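Luciferase light (ONE-Glo) measured on one replicate plate set and viability (CellTiter-Glo) on the other, scaled to a negative control siRNA, with robust z-scores and luciferase per cell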", "reading the numbers": "total luciferase, z-score: higher = more reporter protein produced", "active means": "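An siRNA counts as active if its total luciferase robust z-score exceeds 3; genes with two or more such siRNAs out of three were retested with fresh siRNAs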", "meaning of the calls": "active = raised luciferase; inactive = no rise", "note": "Shown is an unselected part of about 59,000 reagents. About 1,510 of them (2.6%) were called active. 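Calls use total luciferase alone and ignore viability, so some active siRNAs may act by altering cell number.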 Entries without a mark were called inactive. Reagents against one gene are numbered here. Not all columns of the deposit are shown."}
{"gene": "AGPS", "reagent no.": 1, "total luciferase, z-score": -0.9}
{"gene": "AGPS", "reagent no.": 2, "total luciferase, z-score": 0.481}
{"gene": "AGPS", "reagent no.": 3, "total luciferase, z-score": 0.202}
{"gene": "OR52E6", "reagent no.": 1, "total luciferase, z-score": -0.188}
{"gene": "OR52E6", "reagent no.": 2, "total luciferase, z-score": -1.13}
{"gene": "OR52E6", "reagent no.": 3, "total luciferase, z-score": "4.27 (active)"}
{"gene": "CHPF", "reagent no.": 1, "total luciferase, z-score": 0.985}
{"gene": "CHPF", "reagent no.": 2, "total luciferase, z-score": -1.66}
{"gene": "CHPF", "reagent no.": 3, "total luciferase, z-score": -1.81}
{"gene": "SNX12", "reagent no.": 1, "total luciferase, z-score": -1.88}
{"gene": "SNX12", "reagent no.": 2, "total luciferase, z-score": 0.367}
{"gene": "SNX12", "reagent no.": 3, "total luciferase, z-score": -1.41}
{"gene": "MS4A4E", "reagent no.": 1, "total luciferase, z-score": -0.0187}
{"gene": "MS4A4E", "reagent no.": 2, "total luciferase, z-score": 2.62}
{"gene": "MS4A4E", "reagent no.": 3, "total luciferase, z-score": "3.4 (active)"}
{"gene": "TMEM40", "reagent no.": 1, "total luciferase, z-score": -0.517}
{"gene": "TMEM40", "reagent no.": 2, "total luciferase, z-score": 0.242}
{"gene": "TMEM40", "reagent no.": 3, "total luciferase, z-score": 0.167}
{"gene": "UBN1", "reagent no.": 1, "total luciferase, z-score": -1.65}
{"gene": "UBN1", "reagent no.": 2, "total luciferase, z-score": -0.414}
{"gene": "UBN1", "reagent no.": 3, "total luciferase, z-score": 0.494}
{"gene": "ENDOV", "reagent no.": 1, "total luciferase, z-score": -0.746}
{"gene": "ENDOV", "reagent no.": 2, "total luciferase, z-score": -0.236}
{"gene": "ENDOV", "reagent no.": 3, "total luciferase, z-score": 1.38}
{"gene": "PRR23B", "reagent no.": 1, "total luciferase, z-score": -0.0428}
{"gene": "PRR23B", "reagent no.": 2, "total luciferase, z-score": 0.322}
{"gene": "PRR23B", "reagent no.": 3, "total luciferase, z-score": -0.314}
{"gene": "STAG1", "reagent no.": 1, "total luciferase, z-score": -0.0902}
{"gene": "STAG1", "reagent no.": 2, "total luciferase, z-score": 0.753}
{"gene": "STAG1", "reagent no.": 3, "total luciferase, z-score": -0.0614}
{"gene": "MGST2", "reagent no.": 1, "total luciferase, z-score": -0.275}
{"gene": "MGST2", "reagent no.": 2, "total luciferase, z-score": -1.22}
{"gene": "MGST2", "reagent no.": 3, "total luciferase, z-score": 0.0484}
{"gene": "OR6C68", "reagent no.": 1, "total luciferase, z-score": -0.701}
{"gene": "OR6C68", "reagent no.": 2, "total luciferase, z-score": -0.381}
{"gene": "OR6C68", "reagent no.": 3, "total luciferase, z-score": -0.599}
{"gene": "VAMP3", "reagent no.": 1, "total luciferase, z-score": 0.561}
{"gene": "VAMP3", "reagent no.": 2, "total luciferase, z-score": 1.98}
{"gene": "VAMP3", "reagent no.": 3, "total luciferase, z-score": -0.645}
{"gene": "ZBTB5", "reagent no.": 1, "total luciferase, z-score": 1.29}
{"gene": "ZBTB5", "reagent no.": 2, "total luciferase, z-score": -0.675}
{"gene": "ZBTB5", "reagent no.": 3, "total luciferase, z-score": -0.607}
